No constants are given. Whether binding was seen depends on the method and setting. In cells and extracts the contact can be indirect. Some results given as binding are weak or reduced against the parent protein; the word gives no strength.
Tests used:
[1] = biological target: endogenous Targeting protein for Xklp2 (TPX2) (human (endogenous in U2OS and HEK293T)) (UniProt Q9ULW0); test: co-IP; antibody to endogenous TPX2 (or IgG) on Dynabeads Protein G, whole cell lysate, 2 h 4°C, five washes with modified RIPA buffer, Western blot
[2] = biological target: GFP-tagged TPX2, full length (expressed in U2OS cells) (UniProt Q9ULW0); test: co-IP; GFP-TPX2 precipitated (GFP-IP), Western blot for endogenous PARP1; also after control or HPF1 knock-down
[3] = biological target: endogenous Targeting protein for Xklp2 (TPX2) (human (endogenous in U2OS and HEK293T)) (UniProt Q9ULW0); test: proximity ligation; Duolink PLA with antibodies to the endogenous proteins in fixed, permeabilised cells; DMSO or hydroxyurea 2 or 18 h; control, TPX2 knock-down

Sequences of proteins named here, by UniProt entry; tags and fusion partners are left off.
UniProt Q9ULW0: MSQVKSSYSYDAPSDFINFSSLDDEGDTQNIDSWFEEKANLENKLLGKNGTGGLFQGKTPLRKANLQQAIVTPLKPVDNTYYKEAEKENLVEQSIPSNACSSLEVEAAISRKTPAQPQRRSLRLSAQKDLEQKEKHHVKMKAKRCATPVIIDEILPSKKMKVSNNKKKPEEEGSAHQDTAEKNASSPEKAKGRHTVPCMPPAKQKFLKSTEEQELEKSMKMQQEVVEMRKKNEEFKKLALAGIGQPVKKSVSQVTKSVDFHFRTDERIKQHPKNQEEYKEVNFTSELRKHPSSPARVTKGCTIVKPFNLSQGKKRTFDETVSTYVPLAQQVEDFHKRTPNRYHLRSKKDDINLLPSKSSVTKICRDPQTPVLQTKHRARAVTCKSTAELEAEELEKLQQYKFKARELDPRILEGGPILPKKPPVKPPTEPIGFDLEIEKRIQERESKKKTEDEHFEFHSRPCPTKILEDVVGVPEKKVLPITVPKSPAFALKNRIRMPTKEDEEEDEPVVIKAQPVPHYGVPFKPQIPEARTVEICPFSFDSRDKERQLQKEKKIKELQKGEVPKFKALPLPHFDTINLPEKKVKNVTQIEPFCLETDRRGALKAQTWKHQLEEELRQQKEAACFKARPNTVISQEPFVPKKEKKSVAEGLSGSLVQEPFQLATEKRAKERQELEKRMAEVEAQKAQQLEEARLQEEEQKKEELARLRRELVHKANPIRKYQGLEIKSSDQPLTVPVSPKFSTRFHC
UniProt Q86WJ1: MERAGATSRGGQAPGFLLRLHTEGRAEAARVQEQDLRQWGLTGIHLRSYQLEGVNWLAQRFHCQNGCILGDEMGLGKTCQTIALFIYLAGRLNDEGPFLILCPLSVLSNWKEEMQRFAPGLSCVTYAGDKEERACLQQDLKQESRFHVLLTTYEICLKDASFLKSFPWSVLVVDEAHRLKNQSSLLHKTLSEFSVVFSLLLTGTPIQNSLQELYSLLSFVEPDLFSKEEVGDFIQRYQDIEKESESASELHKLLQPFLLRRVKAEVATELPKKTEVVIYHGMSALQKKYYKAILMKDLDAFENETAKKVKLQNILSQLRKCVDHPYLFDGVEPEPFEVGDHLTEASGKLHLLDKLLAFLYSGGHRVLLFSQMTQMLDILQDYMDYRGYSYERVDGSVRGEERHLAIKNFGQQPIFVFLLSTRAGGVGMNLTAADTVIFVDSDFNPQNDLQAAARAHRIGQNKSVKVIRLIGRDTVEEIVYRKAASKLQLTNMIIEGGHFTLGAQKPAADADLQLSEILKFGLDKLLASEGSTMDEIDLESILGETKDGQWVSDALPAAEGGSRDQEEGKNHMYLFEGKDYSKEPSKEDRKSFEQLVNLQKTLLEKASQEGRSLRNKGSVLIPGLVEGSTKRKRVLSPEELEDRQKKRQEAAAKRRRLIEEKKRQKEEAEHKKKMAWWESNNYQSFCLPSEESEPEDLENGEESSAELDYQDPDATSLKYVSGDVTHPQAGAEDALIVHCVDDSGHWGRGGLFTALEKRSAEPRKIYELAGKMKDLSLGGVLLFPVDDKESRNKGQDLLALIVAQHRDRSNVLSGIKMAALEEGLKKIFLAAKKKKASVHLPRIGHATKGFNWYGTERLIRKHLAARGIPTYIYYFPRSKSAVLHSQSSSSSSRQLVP
UniProt P12956: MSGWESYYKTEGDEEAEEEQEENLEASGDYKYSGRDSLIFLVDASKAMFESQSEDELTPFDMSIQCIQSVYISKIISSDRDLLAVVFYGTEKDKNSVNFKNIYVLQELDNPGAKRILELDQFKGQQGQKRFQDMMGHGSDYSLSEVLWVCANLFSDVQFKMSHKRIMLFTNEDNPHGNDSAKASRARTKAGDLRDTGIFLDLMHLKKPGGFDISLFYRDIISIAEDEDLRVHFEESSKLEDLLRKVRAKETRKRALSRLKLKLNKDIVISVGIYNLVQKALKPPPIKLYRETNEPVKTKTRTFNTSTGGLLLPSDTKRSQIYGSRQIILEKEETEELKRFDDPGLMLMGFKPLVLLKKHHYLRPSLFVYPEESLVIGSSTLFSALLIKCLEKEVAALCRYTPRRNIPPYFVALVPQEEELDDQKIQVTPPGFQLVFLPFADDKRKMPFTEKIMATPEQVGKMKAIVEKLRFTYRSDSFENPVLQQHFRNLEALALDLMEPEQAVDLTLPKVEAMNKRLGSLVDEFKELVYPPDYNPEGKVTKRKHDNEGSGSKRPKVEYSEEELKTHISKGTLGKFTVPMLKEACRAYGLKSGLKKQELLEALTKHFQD
UniProt P09874: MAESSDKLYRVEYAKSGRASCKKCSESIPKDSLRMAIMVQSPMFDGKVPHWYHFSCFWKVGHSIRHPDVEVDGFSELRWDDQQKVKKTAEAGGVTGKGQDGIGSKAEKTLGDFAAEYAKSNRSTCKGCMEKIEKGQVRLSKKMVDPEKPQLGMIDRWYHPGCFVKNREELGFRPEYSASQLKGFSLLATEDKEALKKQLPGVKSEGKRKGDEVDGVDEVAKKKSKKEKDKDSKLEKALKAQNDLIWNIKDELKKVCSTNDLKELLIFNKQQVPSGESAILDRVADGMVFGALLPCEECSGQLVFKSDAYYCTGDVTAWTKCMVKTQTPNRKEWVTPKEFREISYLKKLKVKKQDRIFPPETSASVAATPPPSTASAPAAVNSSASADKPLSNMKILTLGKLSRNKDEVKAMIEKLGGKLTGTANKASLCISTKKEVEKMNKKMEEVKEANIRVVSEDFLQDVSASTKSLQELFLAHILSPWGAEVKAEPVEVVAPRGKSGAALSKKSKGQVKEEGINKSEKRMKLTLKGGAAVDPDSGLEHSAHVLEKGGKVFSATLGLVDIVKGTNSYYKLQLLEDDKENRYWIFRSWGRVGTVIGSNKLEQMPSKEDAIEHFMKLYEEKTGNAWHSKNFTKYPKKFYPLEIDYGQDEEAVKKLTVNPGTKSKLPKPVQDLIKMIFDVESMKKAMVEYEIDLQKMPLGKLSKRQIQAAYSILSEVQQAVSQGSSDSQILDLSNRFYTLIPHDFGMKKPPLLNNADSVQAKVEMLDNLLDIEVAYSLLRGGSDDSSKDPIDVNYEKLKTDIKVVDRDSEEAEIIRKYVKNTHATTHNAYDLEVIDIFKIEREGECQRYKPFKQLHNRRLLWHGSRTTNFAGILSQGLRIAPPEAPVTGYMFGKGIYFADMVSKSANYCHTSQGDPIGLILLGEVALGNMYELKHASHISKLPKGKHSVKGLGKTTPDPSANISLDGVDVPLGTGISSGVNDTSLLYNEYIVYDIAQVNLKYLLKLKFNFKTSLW

Substance	binding [1]	binding [2]	binding [3]
CHD1L (from UniProt Q86WJ1 1-897)	binds	–	–
XRCC6 (from UniProt P12956 1-609)	binds	–	–
endogenous PARP1 (from UniProt P09874 1-1014) (enzyme)	binds	binds	binds

Source: article PMC9723622
